From PMC8277857 come the findings set out here.

By UniProt entry, the sequences of proteins in these tests, tags left out. Residues count along the entry.
UniProt P51784: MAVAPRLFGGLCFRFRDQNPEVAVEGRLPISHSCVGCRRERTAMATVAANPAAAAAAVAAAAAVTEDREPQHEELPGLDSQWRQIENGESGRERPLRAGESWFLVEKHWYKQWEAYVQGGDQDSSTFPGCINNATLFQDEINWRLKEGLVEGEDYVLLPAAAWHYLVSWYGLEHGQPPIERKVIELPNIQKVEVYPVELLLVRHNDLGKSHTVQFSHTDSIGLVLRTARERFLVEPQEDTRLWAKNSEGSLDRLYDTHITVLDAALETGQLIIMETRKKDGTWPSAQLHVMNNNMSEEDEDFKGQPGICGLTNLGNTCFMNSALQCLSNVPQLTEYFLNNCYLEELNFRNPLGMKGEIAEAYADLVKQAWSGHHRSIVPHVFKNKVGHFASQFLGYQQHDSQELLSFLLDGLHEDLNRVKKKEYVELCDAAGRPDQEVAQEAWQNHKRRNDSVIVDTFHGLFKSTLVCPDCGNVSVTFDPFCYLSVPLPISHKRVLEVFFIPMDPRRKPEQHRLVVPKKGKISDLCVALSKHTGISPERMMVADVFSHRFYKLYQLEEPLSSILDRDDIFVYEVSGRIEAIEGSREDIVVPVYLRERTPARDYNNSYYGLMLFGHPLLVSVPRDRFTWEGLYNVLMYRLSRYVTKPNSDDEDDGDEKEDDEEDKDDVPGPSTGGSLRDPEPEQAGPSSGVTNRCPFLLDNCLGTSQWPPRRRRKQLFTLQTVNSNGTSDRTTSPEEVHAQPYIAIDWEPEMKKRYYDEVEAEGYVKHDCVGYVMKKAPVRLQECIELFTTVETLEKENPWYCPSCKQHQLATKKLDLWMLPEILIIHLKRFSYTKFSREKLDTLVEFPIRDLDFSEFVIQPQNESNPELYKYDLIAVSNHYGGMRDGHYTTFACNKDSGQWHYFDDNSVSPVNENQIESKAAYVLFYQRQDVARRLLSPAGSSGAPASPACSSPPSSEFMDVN
UniProt P11021, residues 19-654: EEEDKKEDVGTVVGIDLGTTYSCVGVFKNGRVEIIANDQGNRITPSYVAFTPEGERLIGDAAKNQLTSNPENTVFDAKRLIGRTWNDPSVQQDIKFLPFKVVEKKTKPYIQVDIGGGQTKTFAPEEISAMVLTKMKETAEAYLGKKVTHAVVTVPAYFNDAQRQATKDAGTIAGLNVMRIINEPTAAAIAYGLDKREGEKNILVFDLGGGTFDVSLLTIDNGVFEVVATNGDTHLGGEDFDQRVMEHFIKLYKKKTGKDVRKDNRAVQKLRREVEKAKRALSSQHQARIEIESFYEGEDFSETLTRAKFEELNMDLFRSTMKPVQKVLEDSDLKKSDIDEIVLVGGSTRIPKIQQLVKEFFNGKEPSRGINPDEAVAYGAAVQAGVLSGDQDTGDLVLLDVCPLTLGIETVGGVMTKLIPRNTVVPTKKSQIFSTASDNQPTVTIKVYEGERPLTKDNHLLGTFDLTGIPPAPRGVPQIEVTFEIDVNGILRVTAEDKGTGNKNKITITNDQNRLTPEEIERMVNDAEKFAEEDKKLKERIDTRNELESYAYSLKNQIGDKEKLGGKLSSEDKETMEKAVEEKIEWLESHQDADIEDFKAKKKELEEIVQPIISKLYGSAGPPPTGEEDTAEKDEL

Results are given in words; binding and its absence hold for the method and conditions named. Binding seen in cells or lysates may run through a third protein. Some binding calls cover weakened binding; strength is not graded here.

Test [1] concerns the target USP11 (in vivo Co-IP assay) (UniProt P51784). The test can be described thus: co-IP; in vivo Co-IP assay of USP11 and BIP; cells not given.
Another test has as its target Myc-tagged USP11 (UniProt P51784). The test can be described thus: co-IP; Myc-tagged USP11 and Flag-tagged BIP co-expressed in HEK293T cells; precipitated in both directions.
The target of another test is GST-tagged BIP (UniProt P11021). Put plainly: pull-down; GST pull-down in vitro with bacterially expressed GST-tagged BIP and Flag-tagged USP11.
The next test has as its target Flag-tagged BIP (UniProt P11021). Put plainly: co-IP; Myc-tagged USP11 and Flag-tagged BIP co-expressed in HEK293T cells; precipitated in both directions.

As for “BIP (in vivo Co-IP assay) (from UniProt P11021 19-654)”, in test [1], the binding result was “binds”.
As for “Flag-tagged BIP (from UniProt P11021 19-654)”, the binding entry with Myc-tagged USP11 was “binds”.
With “Flag-tagged USP11 (from UniProt P51784 1-963) (enzyme)”, the binding entry with GST-tagged BIP was “binds”.
On to “Myc-tagged USP11 (from UniProt P51784 1-963) (enzyme)”, for which the binding result with Flag-tagged BIP is listed as “binds”.
